Reference: patent publication US20240391859A1, “ALDEHYDE COMPOSITION” (MITSUBISHI GAS CHEMICAL COMPANY, INC., priority 2021, published 2024)

Columns and labels:
[1] = Evaluation of scent/aromatic note and diffusion (impregnated filter paper smelled by expert panelist); parameters: key to Diffusion: Good: when the intensity of the scent immediately after the filter paper was impregnated was equivalent to that of the reference examples (Example 1 and Example 7), the diffusion was evaluated as “good”; Very good: When the intensity of the scent immediately after the filter paper was impregnated was stronger than that of the reference examples (Example 1 and Example 7), the diffusion was evaluated as “very good”; Poor: When the intensity of the scent immediately after the filter paper was impregnated was weaker (less than the same) than that of the reference examples (Example 1 and Example 7), the diffusion was evaluated as “poor”; conditions: for Scent, aromatic note: aldehyde composition on filter paper, expert panelist
[2] = Non-Patent Literature 1; cited from earlier work

| Compound | Diffusion ([1]; Table 2, intensity of scent immediately after impregnation versus reference Example 7) | Scent, aromatic note [1] | aroma [2] | Diffusion ([1]; Table 1, intensity of scent immediately after impregnation versus reference Example 1) |
| --- | --- | --- | --- | --- |
| CCCCc1ccc(CC(C)C=O)cc1 (stereo not shown) [Comparative Example 3, 3-(4-n-butylphenyl)-2-methylpropanal] | Poor | Floral,; also recorded: Green,; also recorded: Muguet,; also recorded: Powdery |  |  |
| CC(C=O)Cc1ccc(C(C)C)cc1 (stereo not shown) [cyclamen aldehyde, 3-(p-isopropylphenyl)-2-methylpropanal] |  |  | cyclamen- and lily-of-the-valley-like aroma with a melon- and cucumber-like feeling |  |
| CC(C=O)Cc1ccc2c(c1)OCO2 (stereo not shown) [Helional, 3-(3,4-methylenedioxyphenyl)-2-methylpropanal] |  |  | sweet heliotrope- and anise-like floral scent |  |
| CCCCc1ccc(CCC=O)cc1 [Comparative Example 1, 3-(4-n-butylphenyl)propanal] |  | Floral,; also recorded: Green,; also recorded: Aldehyde,; also recorded: Muguet |  | Poor |
| CC(C=O)Cc1ccc(C(C)(C)C)cc1 (stereo not shown) [Comparative Example 5, 3-(p-tert-butylphenyl)-2-methylpropanal] |  |  | lily-of-the-valley-like aroma |  |

Entries after “also recorded” stand apart in the source; their conditions may differ.
